# Test results published in patent US12555809B2, “Additives for fluorenone/fluorenol based aqueous redox flow batteries” (Battelle Memorial Institute, priority 2021, dated 2026).
# Experiments:
# [1] = Extended battery cycling stability test; conditions: for capacity decay rate: close to saturated anolyte with β-CD additive/1 M NaOH, ferro/ferricyanide catholyte, over half year (27S4CFL), 160 days (4C7SFL); for VE decrease: same extended cycling with β-CD additive
# [2] = Flow battery rate capability test with additives
structure (smiles),measurement,setting,value
"O=C(O)c1cccc2c1-c1ccc(S(=O)(=O)[O-])cc1C2=O.[K+] [4C7SFL, 4-carboxylate-7-sulfonate fluorenone/fluorenol]",capacity decay rate,[1],0.020 %/day
same,VE decrease,[1],around 5%
"OC[C@@H](O)[C@@H](O)[C@H](O)[C@@H](O)CO [sorbitol, D-sorbitol]",discharge capacity remained compared to the 5 mA/cm^2 test,[2]; 80 mA/cm^2,81.4%
same,discharge capacity remained compared to the 5 mA/cm^2 test,[2]; 100 mA/cm^2,68.4%
"O=C(O)c1cc(S(=O)(=O)O)cc2c1-c1ccc(S(=O)(=O)O)cc1C2=O [27S4CFL, 2,7-sulfonate-4-carboxylate fluorenone]",capacity decay rate,[1],0.025 %/day
same,VE decrease,[1],9%
